Reference: US20060160201A1, “Three-dimensional structures of HDAC9 and Cabin1 and compound structures and methods related thereto” (priority 2003, published 2006)
Results are given in words; binding and its absence hold for the method and conditions named. For some of these results: In cells and extracts the contact can be indirect. Some entries that bind do so weakly or less than the wild type.

Protein sequences, listed by entry. Tags and fused reporters are not part of them. Lines headed by an entry give the natural chain unless they say otherwise; changes in a name come on top.
UniProt Q9Y6J0: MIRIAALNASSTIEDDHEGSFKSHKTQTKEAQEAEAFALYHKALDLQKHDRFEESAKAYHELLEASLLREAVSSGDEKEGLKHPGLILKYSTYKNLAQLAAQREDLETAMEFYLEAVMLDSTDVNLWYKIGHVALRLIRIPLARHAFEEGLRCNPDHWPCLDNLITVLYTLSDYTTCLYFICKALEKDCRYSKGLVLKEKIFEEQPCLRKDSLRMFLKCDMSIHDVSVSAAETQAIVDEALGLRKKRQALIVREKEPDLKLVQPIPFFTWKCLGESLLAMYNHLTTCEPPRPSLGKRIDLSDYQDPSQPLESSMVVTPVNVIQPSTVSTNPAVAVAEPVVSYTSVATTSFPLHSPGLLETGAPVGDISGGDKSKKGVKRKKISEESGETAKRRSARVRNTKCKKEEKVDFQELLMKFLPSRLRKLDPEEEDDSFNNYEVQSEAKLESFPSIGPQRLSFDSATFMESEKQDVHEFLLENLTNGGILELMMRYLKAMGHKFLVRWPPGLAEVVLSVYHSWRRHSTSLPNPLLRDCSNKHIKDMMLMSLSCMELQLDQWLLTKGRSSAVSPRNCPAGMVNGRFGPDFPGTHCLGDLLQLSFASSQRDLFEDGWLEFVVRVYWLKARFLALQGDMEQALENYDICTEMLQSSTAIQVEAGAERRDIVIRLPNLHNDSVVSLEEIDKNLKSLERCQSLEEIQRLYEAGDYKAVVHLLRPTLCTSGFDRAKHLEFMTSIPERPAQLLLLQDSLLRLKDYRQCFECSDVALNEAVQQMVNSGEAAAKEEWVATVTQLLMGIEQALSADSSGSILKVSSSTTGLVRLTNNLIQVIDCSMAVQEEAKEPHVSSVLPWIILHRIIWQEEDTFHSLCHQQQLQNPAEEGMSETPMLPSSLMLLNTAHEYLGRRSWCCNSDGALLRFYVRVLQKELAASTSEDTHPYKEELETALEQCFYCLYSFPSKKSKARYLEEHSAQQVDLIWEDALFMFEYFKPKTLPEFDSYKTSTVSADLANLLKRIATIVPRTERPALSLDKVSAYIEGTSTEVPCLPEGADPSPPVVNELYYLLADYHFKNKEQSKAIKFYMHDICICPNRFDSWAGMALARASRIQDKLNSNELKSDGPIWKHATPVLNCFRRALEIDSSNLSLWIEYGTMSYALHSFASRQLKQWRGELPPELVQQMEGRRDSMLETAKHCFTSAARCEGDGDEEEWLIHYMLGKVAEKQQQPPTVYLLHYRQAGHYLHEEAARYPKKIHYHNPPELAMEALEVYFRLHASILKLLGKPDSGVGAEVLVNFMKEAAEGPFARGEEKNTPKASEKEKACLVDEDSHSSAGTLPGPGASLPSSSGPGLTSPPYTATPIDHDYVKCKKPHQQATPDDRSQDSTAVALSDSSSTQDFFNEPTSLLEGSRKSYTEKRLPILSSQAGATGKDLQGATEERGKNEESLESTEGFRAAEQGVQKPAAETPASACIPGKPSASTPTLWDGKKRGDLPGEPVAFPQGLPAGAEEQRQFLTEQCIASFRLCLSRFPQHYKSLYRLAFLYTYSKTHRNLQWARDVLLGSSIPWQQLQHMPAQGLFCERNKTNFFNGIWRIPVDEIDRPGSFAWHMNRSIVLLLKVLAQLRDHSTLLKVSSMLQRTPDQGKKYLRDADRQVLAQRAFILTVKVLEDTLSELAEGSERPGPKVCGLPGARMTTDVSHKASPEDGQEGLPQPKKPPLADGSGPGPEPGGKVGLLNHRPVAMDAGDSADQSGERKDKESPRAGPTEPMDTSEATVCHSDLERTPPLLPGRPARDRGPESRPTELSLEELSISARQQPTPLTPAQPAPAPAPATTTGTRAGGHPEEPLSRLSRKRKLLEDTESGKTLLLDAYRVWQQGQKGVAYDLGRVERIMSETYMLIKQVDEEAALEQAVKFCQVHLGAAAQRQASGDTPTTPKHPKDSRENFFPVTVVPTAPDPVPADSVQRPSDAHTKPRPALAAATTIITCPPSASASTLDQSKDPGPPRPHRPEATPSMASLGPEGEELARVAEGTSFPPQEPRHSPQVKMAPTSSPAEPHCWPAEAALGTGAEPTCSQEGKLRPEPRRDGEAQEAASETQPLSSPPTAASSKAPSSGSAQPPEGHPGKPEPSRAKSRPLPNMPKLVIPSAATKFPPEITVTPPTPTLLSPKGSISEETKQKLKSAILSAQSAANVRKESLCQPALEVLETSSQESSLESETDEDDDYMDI

What was measured:
[1] = molecular target: glutathione S-transferase (GST)-MEF2B fusion (human) (UniProt Q02080); assay: GST pull-down of [35S]-labeled Cabin1 (2144-2220) mutant on GST-MEF2B beads
MEF2B (1-116) (human) = MEF2B (1-116) (human) (UniProt Q02080); assay: EMSA, titration of Cabin1 (2144-2220) to the MEF2B (1-116) dimer/DNA complex
[2] = molecular target: T1, MEF2 (construct not stated) (human, UniProt Q02080 1-365, limits assumed); assay: in vitro binding, not described
T1 construct: The actual construct is unknown; also called MEF2B
T1 sequence: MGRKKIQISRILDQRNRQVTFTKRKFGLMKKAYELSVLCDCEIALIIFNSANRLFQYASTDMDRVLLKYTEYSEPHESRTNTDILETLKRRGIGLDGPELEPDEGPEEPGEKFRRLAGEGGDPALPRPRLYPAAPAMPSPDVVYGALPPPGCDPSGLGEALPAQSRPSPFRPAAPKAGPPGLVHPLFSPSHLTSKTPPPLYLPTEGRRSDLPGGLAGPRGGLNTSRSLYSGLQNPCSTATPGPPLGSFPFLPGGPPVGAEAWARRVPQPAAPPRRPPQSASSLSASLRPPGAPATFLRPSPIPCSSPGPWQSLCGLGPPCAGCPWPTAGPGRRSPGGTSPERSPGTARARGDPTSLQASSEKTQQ

Row | Substance | binding [1] | other results
1 | Cabin1 (2144-2220) Gln70Ala mutant (from UniProt Q9Y6J0 2144-2220) | binds | 
2 | Cabin1 (2144-2220) Gln70Trp mutant (from UniProt Q9Y6J0 2144-2220) | binds | 
3 | Cabin1 (2144-2220), wild type (from UniProt Q9Y6J0 2144-2220) |  | binding (MEF2B (1-116) (human)): binds
4 | Cabin1 (construct not stated) (from UniProt Q9Y6J0 1-2220) |  | binding [2]: binds
